The source of these data is the supplement of paper PMC10849652.

Chains of the proteins cited; added tags and fusions are not shown. Lines headed by an entry give the natural chain unless they say otherwise; changes in a name come on top.
UniProt Q9H3H1: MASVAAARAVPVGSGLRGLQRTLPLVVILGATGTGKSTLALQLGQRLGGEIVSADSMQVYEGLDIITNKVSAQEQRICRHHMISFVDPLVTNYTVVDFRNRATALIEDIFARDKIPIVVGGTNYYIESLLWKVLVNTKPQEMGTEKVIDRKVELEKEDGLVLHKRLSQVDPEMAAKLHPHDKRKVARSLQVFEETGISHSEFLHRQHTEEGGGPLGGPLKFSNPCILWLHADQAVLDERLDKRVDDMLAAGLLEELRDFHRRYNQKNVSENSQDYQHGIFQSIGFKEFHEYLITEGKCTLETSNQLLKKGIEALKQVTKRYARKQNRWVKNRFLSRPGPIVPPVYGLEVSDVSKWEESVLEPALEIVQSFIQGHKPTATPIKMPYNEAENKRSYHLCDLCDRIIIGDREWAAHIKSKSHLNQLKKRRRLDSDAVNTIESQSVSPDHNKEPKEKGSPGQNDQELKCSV
UniProt Q8N5M4: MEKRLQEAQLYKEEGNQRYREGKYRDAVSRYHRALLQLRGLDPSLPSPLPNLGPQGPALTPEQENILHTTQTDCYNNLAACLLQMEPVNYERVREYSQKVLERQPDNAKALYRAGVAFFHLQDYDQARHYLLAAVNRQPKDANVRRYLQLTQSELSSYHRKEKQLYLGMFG
UniProt Q14669: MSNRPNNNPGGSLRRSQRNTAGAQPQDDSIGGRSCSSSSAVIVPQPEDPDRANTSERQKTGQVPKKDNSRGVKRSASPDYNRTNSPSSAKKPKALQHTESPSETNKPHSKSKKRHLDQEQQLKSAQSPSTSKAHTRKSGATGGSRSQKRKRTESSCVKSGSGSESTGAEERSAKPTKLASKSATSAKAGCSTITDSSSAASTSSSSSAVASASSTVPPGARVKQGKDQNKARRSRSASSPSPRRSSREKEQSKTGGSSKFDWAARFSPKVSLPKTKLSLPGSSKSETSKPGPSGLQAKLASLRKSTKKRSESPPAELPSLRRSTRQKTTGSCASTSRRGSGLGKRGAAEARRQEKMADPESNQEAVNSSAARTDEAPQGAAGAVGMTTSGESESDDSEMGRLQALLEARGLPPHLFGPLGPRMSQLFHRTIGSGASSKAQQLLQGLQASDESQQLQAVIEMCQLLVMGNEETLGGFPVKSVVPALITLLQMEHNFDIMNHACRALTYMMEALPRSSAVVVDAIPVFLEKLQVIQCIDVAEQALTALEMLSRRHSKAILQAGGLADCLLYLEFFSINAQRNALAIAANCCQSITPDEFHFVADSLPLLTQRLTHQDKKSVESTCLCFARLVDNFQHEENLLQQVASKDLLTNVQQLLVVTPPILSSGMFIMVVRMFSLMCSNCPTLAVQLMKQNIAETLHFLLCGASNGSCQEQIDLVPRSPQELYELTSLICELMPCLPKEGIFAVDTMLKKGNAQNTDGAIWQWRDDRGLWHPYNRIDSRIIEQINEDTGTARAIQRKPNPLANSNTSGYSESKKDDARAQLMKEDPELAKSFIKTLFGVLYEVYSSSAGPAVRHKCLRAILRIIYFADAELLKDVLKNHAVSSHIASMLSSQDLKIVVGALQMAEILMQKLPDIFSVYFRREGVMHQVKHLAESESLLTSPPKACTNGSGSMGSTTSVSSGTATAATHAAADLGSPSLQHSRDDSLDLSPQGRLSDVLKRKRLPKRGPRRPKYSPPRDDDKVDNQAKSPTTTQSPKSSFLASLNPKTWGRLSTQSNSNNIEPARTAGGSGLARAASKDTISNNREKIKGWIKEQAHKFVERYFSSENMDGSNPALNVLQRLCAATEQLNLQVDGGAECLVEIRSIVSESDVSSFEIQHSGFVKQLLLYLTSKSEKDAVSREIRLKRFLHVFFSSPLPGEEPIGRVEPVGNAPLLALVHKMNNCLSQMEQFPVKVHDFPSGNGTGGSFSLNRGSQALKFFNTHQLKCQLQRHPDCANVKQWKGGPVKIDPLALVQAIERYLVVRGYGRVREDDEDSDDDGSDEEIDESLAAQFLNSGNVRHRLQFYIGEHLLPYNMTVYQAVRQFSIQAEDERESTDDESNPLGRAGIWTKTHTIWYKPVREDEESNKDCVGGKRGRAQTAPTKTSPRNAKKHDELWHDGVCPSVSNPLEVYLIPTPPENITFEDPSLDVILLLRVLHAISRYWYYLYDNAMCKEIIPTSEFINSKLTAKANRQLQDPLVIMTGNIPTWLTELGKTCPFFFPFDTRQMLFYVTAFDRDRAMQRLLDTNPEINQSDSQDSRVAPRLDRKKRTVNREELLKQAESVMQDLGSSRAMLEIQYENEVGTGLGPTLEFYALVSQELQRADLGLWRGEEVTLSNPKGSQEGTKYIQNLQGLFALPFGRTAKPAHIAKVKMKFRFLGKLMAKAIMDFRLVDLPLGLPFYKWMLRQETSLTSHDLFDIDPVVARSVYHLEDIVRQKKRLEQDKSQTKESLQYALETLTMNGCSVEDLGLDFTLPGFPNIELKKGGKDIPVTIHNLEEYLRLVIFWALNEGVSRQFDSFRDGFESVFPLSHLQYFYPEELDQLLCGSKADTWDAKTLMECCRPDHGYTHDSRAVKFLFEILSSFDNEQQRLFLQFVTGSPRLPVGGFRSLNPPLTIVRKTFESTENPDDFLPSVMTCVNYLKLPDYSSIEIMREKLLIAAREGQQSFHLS
UniProt Q86SZ2: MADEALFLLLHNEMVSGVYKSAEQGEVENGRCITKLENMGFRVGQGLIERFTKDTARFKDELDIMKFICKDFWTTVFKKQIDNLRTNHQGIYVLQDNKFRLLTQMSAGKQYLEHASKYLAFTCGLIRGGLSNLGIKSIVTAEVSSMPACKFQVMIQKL
UniProt Q6NXR4: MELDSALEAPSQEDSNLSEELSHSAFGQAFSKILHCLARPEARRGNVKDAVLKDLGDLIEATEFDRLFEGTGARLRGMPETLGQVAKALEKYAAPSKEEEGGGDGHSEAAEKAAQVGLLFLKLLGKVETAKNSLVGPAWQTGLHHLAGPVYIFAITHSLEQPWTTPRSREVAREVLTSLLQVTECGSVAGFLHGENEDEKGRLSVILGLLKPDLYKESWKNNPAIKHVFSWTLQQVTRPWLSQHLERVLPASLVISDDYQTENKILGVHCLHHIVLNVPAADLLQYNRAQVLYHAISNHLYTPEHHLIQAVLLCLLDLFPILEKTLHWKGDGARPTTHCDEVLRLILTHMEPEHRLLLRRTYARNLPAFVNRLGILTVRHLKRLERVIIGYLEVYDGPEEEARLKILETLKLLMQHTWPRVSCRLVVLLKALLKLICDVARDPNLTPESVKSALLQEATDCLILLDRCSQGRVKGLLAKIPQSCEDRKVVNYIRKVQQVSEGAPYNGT
UniProt Q9H2G4: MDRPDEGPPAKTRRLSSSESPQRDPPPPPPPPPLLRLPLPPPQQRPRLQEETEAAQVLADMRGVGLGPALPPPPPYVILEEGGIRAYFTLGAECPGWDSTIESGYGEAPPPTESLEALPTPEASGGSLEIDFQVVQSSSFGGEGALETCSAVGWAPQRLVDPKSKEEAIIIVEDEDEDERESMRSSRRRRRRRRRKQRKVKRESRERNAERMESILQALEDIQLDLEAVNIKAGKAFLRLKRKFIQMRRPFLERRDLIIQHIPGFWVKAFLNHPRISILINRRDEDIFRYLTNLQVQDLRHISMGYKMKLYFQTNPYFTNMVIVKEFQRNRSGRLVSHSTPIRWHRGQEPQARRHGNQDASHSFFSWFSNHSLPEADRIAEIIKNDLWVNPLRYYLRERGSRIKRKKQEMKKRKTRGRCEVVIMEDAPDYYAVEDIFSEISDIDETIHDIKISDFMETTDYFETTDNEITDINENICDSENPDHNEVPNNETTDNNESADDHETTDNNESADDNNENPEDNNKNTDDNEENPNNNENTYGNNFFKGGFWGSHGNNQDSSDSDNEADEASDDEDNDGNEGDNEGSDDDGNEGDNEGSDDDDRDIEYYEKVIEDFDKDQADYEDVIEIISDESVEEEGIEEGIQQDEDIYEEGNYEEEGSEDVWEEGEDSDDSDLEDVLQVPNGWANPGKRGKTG
UniProt Q8WVT3: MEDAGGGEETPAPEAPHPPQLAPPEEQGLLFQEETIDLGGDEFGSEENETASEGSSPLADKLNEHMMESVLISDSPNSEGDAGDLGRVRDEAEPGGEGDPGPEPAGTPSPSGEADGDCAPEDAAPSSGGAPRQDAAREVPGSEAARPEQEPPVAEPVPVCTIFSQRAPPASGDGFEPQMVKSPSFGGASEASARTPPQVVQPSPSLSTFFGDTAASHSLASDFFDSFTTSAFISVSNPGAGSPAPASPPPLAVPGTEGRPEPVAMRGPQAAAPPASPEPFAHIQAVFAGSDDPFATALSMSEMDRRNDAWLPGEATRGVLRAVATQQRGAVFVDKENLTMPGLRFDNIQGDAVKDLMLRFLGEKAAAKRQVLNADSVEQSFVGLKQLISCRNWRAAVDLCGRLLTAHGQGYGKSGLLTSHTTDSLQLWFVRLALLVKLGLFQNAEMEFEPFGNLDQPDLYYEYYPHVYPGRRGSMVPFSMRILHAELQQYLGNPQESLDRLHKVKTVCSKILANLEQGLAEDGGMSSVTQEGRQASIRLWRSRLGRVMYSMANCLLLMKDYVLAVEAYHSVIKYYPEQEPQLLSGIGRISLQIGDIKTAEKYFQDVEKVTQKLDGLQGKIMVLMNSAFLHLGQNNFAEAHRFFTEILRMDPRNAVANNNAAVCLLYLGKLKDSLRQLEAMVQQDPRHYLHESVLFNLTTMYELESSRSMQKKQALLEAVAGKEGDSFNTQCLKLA
UniProt A5PLN9: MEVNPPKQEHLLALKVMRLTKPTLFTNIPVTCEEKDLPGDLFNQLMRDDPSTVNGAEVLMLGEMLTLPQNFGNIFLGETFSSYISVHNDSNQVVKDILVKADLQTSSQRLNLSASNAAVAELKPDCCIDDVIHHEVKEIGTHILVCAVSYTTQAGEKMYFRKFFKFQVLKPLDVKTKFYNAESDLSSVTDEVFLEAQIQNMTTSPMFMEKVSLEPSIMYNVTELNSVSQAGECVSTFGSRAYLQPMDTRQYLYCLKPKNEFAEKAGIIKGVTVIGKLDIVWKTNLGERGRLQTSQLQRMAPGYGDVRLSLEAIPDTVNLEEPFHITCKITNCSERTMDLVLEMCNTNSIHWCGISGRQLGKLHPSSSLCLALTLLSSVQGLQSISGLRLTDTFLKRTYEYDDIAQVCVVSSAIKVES
UniProt Q96Q05, whole entry, looked up: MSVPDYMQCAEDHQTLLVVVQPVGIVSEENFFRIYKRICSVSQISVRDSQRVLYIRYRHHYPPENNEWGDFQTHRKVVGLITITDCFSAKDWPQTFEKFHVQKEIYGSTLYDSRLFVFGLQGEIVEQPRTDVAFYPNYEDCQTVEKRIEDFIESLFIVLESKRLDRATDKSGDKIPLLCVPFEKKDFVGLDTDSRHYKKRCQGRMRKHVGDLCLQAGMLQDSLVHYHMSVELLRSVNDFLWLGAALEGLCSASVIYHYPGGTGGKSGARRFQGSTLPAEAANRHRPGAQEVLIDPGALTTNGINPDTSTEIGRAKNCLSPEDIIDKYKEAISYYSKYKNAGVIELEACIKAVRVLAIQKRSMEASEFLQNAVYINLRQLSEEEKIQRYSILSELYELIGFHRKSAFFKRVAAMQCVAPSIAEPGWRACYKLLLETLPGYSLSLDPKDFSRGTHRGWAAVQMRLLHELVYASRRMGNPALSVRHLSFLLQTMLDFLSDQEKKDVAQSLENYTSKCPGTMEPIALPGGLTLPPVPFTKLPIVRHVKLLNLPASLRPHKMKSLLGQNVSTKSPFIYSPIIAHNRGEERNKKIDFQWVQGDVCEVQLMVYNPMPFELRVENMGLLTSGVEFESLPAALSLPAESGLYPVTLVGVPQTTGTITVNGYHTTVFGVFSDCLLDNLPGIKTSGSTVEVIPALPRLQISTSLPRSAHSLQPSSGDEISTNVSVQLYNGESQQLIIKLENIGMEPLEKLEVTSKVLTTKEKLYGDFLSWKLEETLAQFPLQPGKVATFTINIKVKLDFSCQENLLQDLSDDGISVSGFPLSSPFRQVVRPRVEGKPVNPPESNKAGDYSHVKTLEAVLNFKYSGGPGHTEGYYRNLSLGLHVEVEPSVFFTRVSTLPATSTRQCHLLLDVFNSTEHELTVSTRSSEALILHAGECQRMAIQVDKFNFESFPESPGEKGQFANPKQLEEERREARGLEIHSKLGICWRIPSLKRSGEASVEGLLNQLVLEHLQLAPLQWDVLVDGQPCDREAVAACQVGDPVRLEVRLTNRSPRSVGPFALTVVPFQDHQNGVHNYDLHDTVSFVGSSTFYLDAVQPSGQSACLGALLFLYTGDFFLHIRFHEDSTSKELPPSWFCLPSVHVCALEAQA
UniProt Q9NX07: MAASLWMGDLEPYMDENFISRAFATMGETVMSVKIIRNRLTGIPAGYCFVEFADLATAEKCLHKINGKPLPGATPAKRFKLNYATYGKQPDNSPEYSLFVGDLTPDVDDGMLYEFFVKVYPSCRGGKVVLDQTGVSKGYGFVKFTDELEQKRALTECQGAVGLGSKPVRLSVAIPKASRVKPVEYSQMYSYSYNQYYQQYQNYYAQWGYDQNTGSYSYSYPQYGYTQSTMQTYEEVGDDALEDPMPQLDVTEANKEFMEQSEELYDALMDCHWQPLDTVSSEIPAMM

Some of the results follow.

Compound in the test: Cn1cc(CNCC2CCN(c3ncc(C(=O)NO)cn3)CC2)c2ccccc21 [quisinostat]
In words: log2 fold change, soluble protein after heating vs DMSO (PISA); higher = thermal stabilisation; K562 lysate, 10 uM; active = over 0.2 and 3.5 SD of the protein, either way, in both replicates (recomputed). A digest of the protocol: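 K562 pellets were dounce-homogenised in PBS pH 7.4 with 1 mM MgCl2, and the crude extract at 1 mg/mL protein was treated with 10 μM compound for 30 min. Aliquots were heated for 3 min across 48°C-58°C, pooled, and brought to 0.5% NP-40 at 4°C; soluble protein was the supernatant after 21,000xg for 90 min. Soluble protein was quantified by TMTpro 16plex LC-MS/MS with channel sums equalised, and reported as log2 fold change in thermal stability against DMSO controls, with values from duplicates.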
For TRAPPC10 (UniProt P48553), the log2 fold change is inactive: -0.006. The result for TRIT1 (UniProt Q9H3H1) reads inactive: 0.065; that for TTC9C (UniProt Q8N5M4), inactive: 0.193; that for TRIP12 isoform 2 (UniProt Q14669), inactive: -0.065. The figure for TRAPPC6B (UniProt Q86SZ2) is inactive: 0.149; for TTI2 (UniProt Q6NXR4) it is inactive: -0.009; for TSPYL2 (UniProt Q9H2G4) it is inactive: 0.142. The figure for TRAPPC12 (UniProt Q8WVT3) is inactive: 0.003; for TSNAX (UniProt Q99598) it is inactive: -0.007. On to TRIM21 (UniProt P19474), for which the log2 fold change was inactive: 0.028.

For TRAPPC13 isoform 4 (UniProt A5PLN9), the log2 fold change was inactive: -0.088.

For the target TRAPPC9 isoform 2 (UniProt Q96Q05), the log2 fold change is inactive: -0.07. The figure for TRIP10 isoform 2 (UniProt Q15642) is inactive: 0.014; for TRNAU1AP (UniProt Q9NX07) it is inactive: 0.012; for TRMT112 (UniProt Q9UI30) it is inactive: 0.035.
